From PMC6797808, “Fucosylated inhibitors of recently identified bangle lectin from Photorhabdus asymbiotica” (Scientific Reports, 2019) come the findings set out here.

The chains behind the UniProt entries cited, without tags or fusion partners.
UniProt C7BLE4: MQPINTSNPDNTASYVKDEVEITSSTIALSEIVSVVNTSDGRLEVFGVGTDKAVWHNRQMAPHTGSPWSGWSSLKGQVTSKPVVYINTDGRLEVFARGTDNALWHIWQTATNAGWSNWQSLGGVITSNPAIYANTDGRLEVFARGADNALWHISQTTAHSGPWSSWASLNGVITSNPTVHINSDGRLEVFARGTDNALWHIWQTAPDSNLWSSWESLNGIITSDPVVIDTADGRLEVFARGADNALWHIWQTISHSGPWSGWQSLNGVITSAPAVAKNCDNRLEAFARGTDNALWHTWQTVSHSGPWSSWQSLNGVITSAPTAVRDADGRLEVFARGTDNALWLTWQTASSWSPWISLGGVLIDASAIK

The test deals with bangle lectin PHL from Photorhabdus asymbiotica (Photorhabdus asymbiotica) (UniProt C7BLE4). The test is described as follows: crystal structure; PHL crystals (3.7 M NaCl, 100 mM Hepes, pH 7.5) soaked in 10 mM fucoside 2, 3 or 4 for 1 hour; two monomer units (A, B) in each structure; both purified.

No constants are given. Whether binding was seen depends on the method and setting. Some binding calls cover weakened binding; strength is not graded here.

As for “bangle lectin PHL from Photorhabdus asymbiotica (from UniProt C7BLE4 1-369)”, the binding result was “binds”.
